Results published in PMC10985088 (Scientific Reports, 2024).

Experiment: general procedure: solution-phase peptide synthesis; EDCI, HOAt
Settings: late stage modification step

Q: With “PEPTIDE1{[Qn2CO].[dS].A.[NMeCys].[NMeVal]}|PEPTIDE2{[Qn2CO].[dS].A.[NMeAlaB].[NMeVal]}$PEPTIDE1,PEPTIDE2,5:R2-2:R3|PEPTIDE2,PEPTIDE1,5:R2-2:R3|PEPTIDE1,PEPTIDE2,4:R3-4:R3$$$V2.0” as the substance, how does the step yield read?
A: 20%

Q: With “PEPTIDE1{[Nap2CO].[dS].A.[NMeCys].[NMeVal]}|PEPTIDE2{[Nap2CO].[dS].A.[NMeAlaB].[NMeVal]}$PEPTIDE1,PEPTIDE2,5:R2-2:R3|PEPTIDE2,PEPTIDE1,5:R2-2:R3|PEPTIDE1,PEPTIDE2,4:R3-4:R3$$$V2.0” as the substance, how does the step yield read?
A: 33%

Same assay, conditions: late stage modification step, bicyclic, sequence written open

Q: For “{N-(Quinoline-3-carbonyl)-D-Ser-L-Ala-N-Boc-N-Me-L-Cys-N-Me-L-Val}2 sulfide (5)”, which step yield is on record?
A: 17%

Q: For “{N-(Quinoline-6-carbonyl)-D-Ser-L-Ala-N-Boc-N-Me-L-Cys-N-Me-L-Val}2 sulfide (6)”, which step yield is on record?
A: 19%

Same assay, conditions: late stage modification step, over 2 steps

Q: For “PEPTIDE1{[Pyz2CO].[dS].A.[NMeCys].[NMeVal]}|PEPTIDE2{[Pyz2CO].[dS].A.[NMeAlaB].[NMeVal]}$PEPTIDE1,PEPTIDE2,5:R2-2:R3|PEPTIDE2,PEPTIDE1,5:R2-2:R3|PEPTIDE1,PEPTIDE2,4:R3-4:R3$$$V2.0”, which step yield is on record?
A: 49% over 2 steps

Q: With “PEPTIDE1{[AQ2CO].[dS].A.[NMeCys].[NMeVal]}|PEPTIDE2{[AQ2CO].[dS].A.[NMeAlaB].[NMeVal]}$PEPTIDE1,PEPTIDE2,5:R2-2:R3|PEPTIDE2,PEPTIDE1,5:R2-2:R3|PEPTIDE1,PEPTIDE2,4:R3-4:R3$$$V2.0” as the substance, how does the step yield read?
A: 62% over 2 steps

Q: Which step yield does the source give for “(N-Boc-D-Ser-L-Ala-N-Boc-N-Me-L-Cys-N-Me-L-Val)2 sulfide (22)” here?
A: 39% over 2 steps

Q: Which step yield does the source give for “PEPTIDE1{[4BzBz].[dS].A.[NMeCys].[NMeVal]}|PEPTIDE2{[4BzBz].[dS].A.[NMeAlaB].[NMeVal]}$PEPTIDE1,PEPTIDE2,5:R2-2:R3|PEPTIDE2,PEPTIDE1,5:R2-2:R3|PEPTIDE1,PEPTIDE2,4:R3-4:R3$$$V2.0” here?
A: 71% over 2 steps

Same assay, conditions: late stage modification step, over 2 steps, bicyclic, sequence written open

Q: With “{N-(Indol-6-carbonyl)-D-Ser-L-Ala-N-Boc-N-Me-L-Cys-N-Me-L-Val}2 sulfide (11)” as the substance, how does the step yield read?
A: 28% over 2 steps

Q: Which step yield does the source give for “{N-(Benzoxazole-5-carbonyl)-D-Ser-L-Ala-N-Boc-N-Me-L-Cys-N-Me-L-Val}2 sulfide (15)” here?
A: 33% over 2 steps

Q: Which step yield does the source give for “{N-(Indol-2-carbonyl)-D-Ser-L-Ala-N-Boc-N-Me-L-Cys-N-Me-L-Val}2 sulfide (8)” here?
A: 30% over 2 steps

Q: Which step yield does the source give for “{N-(Indol-5-carbonyl)-D-Ser-L-Ala-N-Boc-N-Me-L-Cys-N-Me-L-Val}2 sulfide (10)” here?
A: 57% over 2 steps

Q: Which step yield does the source give for “{N-(Benzthiazole-6-carbonyl)-D-Ser-L-Ala-N-Boc-N-Me-L-Cys-N-Me-L-Val}2 sulfide (17)” here?
A: 51% over 2 steps

Q: With “{N-(Benzothiophene-2-carbonyl)-D-Ser-L-Ala-N-Boc-N-Me-L-Cys-N-Me-L-Val}2 sulfide (14)” as the substance, how does the step yield read?
A: 87% over 2 steps

Q: For “{N-(Indol-7-carbonyl)-D-Ser-L-Ala-N-Boc-N-Me-L-Cys-N-Me-L-Val}2 sulfide (12)”, which step yield is on record?
A: 28% over 2 steps

Q: With “{N-(Benzoxazole-6-carbonyl)-D-Ser-L-Ala-N-Boc-N-Me-L-Cys-N-Me-L-Val}2 sulfide (16)” as the substance, how does the step yield read?
A: 54% over 2 steps

Q: Which step yield does the source give for “{N-(Benzofurane-2-carbonyl)-D-Ser-L-Ala-N-Boc-N-Me-L-Cys-N-Me-L-Val}2 sulfide (13)” here?
A: 85% over 2 steps

Same assay, conditions: late stage modification step, over 3 steps, bicyclic, sequence written open

Q: With “{N-(Indol-3-carbonyl)-D-Ser-L-Ala-N-Boc-N-Me-L-Cys-N-Me-L-Val}2 sulfide (9)” as the substance, how does the step yield read?
A: 19% over 3 steps

HELM strings list residues between dots; [ac] is acetyl, [am] amide, other brackets name non-standard units.
